Drawing on publication doi:10.1101/2025.05.13.653593, this text covers binding for 1 substance.

No constants are given. Whether binding was seen depends on the method and setting. Binding calls can cover weak binding; strength is not graded here.

For this assay, the target named is Rv2315c, spotted on the Mtb proteome microarray (Mycobacterium tuberculosis) (UniProt P71897). Put plainly: peptide or protein array.

Turning to “recombinant human GSDMD protein (from UniProt P57764 1-484)”, the binding entry is recorded as “binds”.
